No constants are given. Whether binding was seen depends on the method and setting. In cells and extracts the contact can be indirect. Some results given as binding are weak or reduced against the parent protein; the word gives no strength. Tags and fused reporters may be left off the sequences shown.
T1: Apl2-VN (AP-1 beta-subunit Apl2 fused with the N-terminal fragment of Venus) (S. cerevisiae) (UniProt P36000)
T1 sequence: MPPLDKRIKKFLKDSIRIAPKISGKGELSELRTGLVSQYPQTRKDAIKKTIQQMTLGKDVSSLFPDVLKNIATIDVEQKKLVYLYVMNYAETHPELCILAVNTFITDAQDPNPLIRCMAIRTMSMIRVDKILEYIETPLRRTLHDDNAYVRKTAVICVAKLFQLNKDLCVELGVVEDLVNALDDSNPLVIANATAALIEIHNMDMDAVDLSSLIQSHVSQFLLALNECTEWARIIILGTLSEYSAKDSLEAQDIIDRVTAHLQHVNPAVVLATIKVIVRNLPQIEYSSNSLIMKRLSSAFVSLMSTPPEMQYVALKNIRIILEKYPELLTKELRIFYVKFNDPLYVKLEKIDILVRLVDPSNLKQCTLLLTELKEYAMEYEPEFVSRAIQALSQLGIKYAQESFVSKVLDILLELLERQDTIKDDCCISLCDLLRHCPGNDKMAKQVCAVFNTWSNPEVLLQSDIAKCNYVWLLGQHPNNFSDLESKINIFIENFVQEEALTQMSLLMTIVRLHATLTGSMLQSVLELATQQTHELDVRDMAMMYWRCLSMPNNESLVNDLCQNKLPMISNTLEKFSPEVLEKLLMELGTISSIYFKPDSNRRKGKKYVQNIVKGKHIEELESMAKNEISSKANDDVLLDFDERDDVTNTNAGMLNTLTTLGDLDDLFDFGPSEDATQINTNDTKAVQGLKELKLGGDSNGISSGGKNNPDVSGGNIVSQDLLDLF


Target: T1, Apl2-VN (AP-1 beta-subunit Apl2 fused with the N-terminal fragment of Venus) (S. cerevisiae)
Assay: split reporter; BiFC: the two proteins fused with the N-terminal (VN) or C-terminal (VC) fragment of Venus at their endogenous loci; living yeast cells imaged for YFP fluorescence

binding | Binder
binds | Apl4-VC (AP-1 gamma-subunit Apl4 fused with the C-terminal fragment of Venus) (protein, UniProt Q12028 1-832) MGSSLRSFIKDVRGAKTLADERAIITKQSAKIRTKLRDDHLPHEKRRVNIQKLLYLYILGEKTHFGQVESINLIASDDFVDKRLGYLAATLLLDESEDLLTLLTNMLNNDLHHPNKYAVSLALTSLGFLSSPELARDLYPDVENIIKNSRDPFLLKKALQCAAKLIFKDVSLLEIFNIEDITKILSSHSICTHGVLLGVTKIIQSILLIGLNRKKDEDEDEDGIDYSNDILSPLSLLLRDFFIRLENMNSKNIEPGYDVQGICDPFLQCEIIYTLKLYFQVGELLNSNNVLDYKDNFCDLLTRIATNTDSTKNSGQAILYETVKTIFSLDLNQPLRVLGINILAKFLAGKDNNTKYVSLNTLLKVVPQEPTAVQRHRKFISHCLQDTDVSIRMRALELSFAILDDSNLVELVNELMKFLAKQDEDSKDLIIYTIDHLIDTFDTRVVKDESWKLDVFFNILKLVGSFINYEKINDILIIINNTSQLSDKSEFLRKMLTISLNGTSAEISEENIGWQLVLIWCIGEYGDLVLNEGNKNGADIINESSITDYLLTLQELYTATNLKIINYILTAALKLSVRFHDAKNIEKLRQLILSYTDSTDLSLQMKSNQYEIFFNQSISVKKIILETMPKFEKITEEQDNGKALSKNLISNEPVDLLSDLLGEDSKAESKASTGDNVKPIDILEEIFGEKNDIAQVPKNANKEESINHSSAVEANSGVTLPLDANKIYDSSSLNVYASLLSANSGLAHLDLYFQAKSLISDLKTFCAVPKAQKLTLGQLYPSSTINASQICKQSLKISGSGKLKLRVKLDFHLNGSSSITNEQFDHKFDETL
no binding | Ldb19-VC (Ldb19/Art1 fused with the C-terminal fragment of Venus) (protein, UniProt Q12502 1-818) MAFSRLTSTHQSNHNGYSNSNKKGQSLPLTLSIDVESPPCVLYGSAMESSGAVLSGLFTVTVVDPYSSAEDKSLKNTESNVSTTSKSLKRKSTFGSALSSRLSSLSASTSNISPSTSSTSISHSPTPANLRIMAGYTKITITSVTLSLVQKIHFHKPFVPNISSMQTCMNCKTKITNMKSWEIQSNTQDLSVGSHSYPFSYLIPGSVPCSSSLGATAETQVKYELIAVVTYIDPHRNSFSSGHSTPRKEGSSSKKRLLQLAMPIAVTRSIPRGPDKNSLRVFPPTELTAAAVLPNVVYPKSTFPLEMKLDGVSSGDRRWRMRKLSWRIEETTRVKAHACPVHKHELRQLEEQVKIKESEKSKKPRSHIKRYGELGPQIRVAVNSLENMPSQRLPGEPGREQAPNSSGPASTGNVGLDDENPVNEDEEDQPGSEFIHPSDDALRQELLMQQQRARQQQLQQELKNNSSLFTEEVRIISKGEMKSGWKTDFDNNGKIELVTEIDCMGLNSGVSNPVMHASTLQTPSTGNKKPSINVACDIQDPNLGLYVSHILAVEIVVAEETLQYANGQPIRKPNSKNKKETNNNTMNVHNPDQRLAELSPIFANRNTPKVRRMGPEDITPVNSNKSNHSTNKEKASNGASNSNIVSVPTGAARVLRMQFRLTVTERSGLGISWDEEVPPIYQDVELLSPPCYELSINNGIKNKLYSTMSTPVRSEDDFVGGSDEDIGNYESQGLEPGPNVQEVTITQNKLTIPPTAHHYQPASSSQRSLTTVQSPPLESVVSVQGSVPFRGHVLTPHSTRDIRIQNFSDFLDSNRITQ

From paper PMC6221343
